In publication doi:10.1101/2020.09.03.281279:
No constants are given. Whether binding was seen depends on the method and setting. Some entries that bind do so weakly or less than the wild type. Sequences can lack the tags named with a protein.

T1: RqcH C-terminally tagged with a FLAG3 epitope (B. subtilis) (UniProt O34693)
T1 sequence: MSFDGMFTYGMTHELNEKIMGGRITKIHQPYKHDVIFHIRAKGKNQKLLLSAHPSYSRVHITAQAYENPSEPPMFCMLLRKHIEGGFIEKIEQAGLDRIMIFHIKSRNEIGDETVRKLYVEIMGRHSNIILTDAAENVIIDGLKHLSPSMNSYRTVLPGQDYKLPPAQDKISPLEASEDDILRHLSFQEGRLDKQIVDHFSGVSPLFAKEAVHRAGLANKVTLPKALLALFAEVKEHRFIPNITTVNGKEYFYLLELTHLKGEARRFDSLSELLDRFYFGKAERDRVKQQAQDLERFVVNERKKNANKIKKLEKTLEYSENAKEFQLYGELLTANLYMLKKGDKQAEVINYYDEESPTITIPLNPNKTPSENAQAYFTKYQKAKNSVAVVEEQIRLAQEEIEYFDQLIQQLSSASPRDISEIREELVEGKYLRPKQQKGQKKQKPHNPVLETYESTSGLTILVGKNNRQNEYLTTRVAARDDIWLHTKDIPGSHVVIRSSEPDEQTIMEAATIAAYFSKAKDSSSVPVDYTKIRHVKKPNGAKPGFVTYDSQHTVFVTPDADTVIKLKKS

T2: YabO with a C-terminal FLAG3-tag (B. subtilis) (UniProt P37557)
T2 sequence: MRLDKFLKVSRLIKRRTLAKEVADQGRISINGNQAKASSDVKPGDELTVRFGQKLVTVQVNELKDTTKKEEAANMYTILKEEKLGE

B1: YabO (endogenous, found in the RqcH-FLAG3 pull-out) (protein, UniProt P37557 1-86)
chain: T2 sequence
B2: RqcH (endogenous, found in the YabO-FLAG3 pull-out) (protein, UniProt O34693 1-570)
chain: T1 sequence

Assays:
[1] = molecular target: T1, RqcH C-terminally tagged with a FLAG3 epitope (B. subtilis); assay: cryo-EM structure
[2] = molecular target: T2, YabO with a C-terminal FLAG3-tag (B. subtilis); assay: cryo-EM structure

Binder | binding [1] | binding [2]
B1 | binds | 
B2 |  | binds
